# Measurements taken from the supplement of paper PMC10849652.
# Chains of the proteins cited; added tags and fusions are not shown. Lines headed by an entry give the natural chain unless they say otherwise; changes in a name come on top.
# UniProt P26378: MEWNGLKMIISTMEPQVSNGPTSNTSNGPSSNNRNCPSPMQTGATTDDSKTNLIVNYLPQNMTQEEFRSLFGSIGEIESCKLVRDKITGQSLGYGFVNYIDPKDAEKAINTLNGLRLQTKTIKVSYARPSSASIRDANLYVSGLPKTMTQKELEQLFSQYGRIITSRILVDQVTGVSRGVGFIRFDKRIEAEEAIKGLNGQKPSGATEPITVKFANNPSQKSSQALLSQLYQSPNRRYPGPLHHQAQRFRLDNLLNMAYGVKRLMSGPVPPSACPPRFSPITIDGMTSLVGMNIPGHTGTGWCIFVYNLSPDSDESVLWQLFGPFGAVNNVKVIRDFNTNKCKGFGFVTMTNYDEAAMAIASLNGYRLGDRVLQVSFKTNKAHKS
# UniProt Q9HCE0: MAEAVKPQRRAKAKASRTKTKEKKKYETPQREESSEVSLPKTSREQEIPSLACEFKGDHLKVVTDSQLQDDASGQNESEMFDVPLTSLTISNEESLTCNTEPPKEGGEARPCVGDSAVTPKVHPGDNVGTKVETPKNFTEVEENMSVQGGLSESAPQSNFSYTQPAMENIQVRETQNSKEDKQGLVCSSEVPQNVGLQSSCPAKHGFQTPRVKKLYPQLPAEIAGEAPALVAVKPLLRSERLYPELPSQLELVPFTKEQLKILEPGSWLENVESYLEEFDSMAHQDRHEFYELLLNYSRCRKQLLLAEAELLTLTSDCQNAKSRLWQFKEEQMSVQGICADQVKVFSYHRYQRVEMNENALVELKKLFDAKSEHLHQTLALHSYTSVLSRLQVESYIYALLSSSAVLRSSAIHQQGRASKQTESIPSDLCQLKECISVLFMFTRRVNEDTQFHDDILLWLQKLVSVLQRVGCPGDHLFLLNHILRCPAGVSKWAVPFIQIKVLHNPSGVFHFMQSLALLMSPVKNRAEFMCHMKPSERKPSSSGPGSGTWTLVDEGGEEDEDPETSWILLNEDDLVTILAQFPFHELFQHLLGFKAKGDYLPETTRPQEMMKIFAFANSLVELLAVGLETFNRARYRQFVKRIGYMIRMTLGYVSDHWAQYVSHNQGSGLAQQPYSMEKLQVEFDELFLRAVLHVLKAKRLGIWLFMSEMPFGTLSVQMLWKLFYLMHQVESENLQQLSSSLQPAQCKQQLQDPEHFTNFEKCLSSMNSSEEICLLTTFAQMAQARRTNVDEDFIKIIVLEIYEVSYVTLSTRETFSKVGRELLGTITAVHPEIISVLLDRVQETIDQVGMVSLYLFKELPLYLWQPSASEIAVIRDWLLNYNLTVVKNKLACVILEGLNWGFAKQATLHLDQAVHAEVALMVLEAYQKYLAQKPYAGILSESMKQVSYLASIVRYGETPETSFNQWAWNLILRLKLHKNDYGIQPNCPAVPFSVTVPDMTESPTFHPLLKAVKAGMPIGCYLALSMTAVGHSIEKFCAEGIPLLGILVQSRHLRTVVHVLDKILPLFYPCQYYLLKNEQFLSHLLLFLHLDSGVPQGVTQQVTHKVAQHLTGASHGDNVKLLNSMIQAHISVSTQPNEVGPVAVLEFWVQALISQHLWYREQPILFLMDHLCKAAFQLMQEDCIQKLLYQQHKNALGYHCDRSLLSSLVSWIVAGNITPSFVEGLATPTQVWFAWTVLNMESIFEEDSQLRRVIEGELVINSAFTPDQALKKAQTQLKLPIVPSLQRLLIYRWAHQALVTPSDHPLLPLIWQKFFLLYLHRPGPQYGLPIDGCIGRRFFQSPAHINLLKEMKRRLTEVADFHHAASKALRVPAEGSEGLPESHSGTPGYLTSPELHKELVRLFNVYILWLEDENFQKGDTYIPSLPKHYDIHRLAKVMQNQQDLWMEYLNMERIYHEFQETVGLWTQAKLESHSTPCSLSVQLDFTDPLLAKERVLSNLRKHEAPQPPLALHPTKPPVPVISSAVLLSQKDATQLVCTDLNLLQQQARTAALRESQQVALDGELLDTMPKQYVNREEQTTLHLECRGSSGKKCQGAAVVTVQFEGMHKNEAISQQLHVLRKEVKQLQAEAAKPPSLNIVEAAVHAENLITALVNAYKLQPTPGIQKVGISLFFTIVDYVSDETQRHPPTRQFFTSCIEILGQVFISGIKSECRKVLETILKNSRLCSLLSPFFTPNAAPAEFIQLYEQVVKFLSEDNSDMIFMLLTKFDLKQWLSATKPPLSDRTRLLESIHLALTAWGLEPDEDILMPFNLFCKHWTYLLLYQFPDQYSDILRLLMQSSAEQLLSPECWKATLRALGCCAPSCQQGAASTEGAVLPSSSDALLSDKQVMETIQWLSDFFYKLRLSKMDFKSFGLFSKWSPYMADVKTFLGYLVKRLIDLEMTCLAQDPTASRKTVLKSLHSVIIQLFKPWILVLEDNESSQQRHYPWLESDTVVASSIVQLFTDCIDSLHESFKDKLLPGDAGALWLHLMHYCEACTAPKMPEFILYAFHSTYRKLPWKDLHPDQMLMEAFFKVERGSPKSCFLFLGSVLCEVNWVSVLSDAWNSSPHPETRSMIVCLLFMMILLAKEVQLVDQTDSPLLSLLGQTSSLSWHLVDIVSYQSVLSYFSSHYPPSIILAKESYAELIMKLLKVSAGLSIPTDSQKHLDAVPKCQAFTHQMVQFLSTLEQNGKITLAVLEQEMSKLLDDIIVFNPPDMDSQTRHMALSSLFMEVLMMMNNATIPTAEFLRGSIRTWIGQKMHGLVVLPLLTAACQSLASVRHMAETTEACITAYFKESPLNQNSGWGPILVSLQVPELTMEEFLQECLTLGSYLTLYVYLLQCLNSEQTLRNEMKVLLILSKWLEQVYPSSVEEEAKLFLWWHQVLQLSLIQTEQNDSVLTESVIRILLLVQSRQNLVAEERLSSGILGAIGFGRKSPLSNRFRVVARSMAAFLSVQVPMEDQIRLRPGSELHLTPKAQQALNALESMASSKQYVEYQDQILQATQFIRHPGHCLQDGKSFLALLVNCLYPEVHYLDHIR
# UniProt Q8TE02: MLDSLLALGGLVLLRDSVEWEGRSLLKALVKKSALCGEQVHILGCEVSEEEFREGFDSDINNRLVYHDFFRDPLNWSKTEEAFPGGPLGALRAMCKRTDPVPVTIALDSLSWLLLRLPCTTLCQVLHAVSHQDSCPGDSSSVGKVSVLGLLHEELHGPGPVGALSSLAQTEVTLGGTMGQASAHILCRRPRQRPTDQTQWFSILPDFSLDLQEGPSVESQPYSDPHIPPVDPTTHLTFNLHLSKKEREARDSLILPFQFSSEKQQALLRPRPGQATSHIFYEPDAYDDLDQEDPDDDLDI
# UniProt Q9H6S3: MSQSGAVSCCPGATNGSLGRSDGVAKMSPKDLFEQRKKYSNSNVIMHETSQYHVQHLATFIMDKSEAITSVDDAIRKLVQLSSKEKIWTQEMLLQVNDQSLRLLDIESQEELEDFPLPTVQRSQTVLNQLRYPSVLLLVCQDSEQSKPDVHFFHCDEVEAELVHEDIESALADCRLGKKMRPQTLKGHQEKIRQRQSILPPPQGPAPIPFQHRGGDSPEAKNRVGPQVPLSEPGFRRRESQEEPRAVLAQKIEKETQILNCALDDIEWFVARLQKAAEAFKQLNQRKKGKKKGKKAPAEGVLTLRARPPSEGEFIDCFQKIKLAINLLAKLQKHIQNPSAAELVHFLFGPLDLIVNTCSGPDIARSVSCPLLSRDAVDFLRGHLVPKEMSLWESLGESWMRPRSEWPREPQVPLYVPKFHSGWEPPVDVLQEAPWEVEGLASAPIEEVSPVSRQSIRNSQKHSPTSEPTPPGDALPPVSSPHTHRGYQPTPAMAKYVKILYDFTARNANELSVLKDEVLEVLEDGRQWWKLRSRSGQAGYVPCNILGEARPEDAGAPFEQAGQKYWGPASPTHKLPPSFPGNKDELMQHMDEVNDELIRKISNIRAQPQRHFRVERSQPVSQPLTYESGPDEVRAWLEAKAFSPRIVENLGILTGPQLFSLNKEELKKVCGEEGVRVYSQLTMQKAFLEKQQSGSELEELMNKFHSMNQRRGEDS
# UniProt Q9Y6I3: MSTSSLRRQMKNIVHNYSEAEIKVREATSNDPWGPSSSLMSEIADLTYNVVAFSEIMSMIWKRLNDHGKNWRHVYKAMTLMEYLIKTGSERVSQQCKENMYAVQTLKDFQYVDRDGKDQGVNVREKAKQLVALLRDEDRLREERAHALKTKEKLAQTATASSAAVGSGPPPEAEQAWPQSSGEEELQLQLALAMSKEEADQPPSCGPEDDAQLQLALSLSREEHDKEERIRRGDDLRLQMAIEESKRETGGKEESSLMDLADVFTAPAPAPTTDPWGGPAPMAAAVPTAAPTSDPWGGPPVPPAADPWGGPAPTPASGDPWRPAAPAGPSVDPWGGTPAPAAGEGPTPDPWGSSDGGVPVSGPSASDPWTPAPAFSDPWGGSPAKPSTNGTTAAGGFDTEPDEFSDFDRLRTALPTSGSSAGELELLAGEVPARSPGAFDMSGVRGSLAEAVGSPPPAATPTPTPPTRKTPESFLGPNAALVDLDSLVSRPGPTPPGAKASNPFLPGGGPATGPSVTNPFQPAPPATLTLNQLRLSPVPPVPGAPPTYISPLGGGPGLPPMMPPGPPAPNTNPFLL
# UniProt Q9NQZ7: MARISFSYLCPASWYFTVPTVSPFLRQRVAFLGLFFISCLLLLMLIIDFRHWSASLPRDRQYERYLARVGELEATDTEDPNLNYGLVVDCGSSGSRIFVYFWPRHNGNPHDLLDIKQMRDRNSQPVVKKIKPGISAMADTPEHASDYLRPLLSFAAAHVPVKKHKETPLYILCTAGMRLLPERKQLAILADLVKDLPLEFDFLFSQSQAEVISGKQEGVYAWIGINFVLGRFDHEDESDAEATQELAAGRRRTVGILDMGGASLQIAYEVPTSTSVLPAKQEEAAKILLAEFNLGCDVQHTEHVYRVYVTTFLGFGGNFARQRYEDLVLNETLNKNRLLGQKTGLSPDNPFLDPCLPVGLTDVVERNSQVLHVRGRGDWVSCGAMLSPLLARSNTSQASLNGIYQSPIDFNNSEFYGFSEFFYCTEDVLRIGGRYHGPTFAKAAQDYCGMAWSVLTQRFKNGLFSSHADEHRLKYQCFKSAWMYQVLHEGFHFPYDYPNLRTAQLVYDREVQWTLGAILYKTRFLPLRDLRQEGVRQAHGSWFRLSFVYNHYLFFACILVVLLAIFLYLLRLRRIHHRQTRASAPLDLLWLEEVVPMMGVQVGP
# UniProt P11171, whole entry, looked up: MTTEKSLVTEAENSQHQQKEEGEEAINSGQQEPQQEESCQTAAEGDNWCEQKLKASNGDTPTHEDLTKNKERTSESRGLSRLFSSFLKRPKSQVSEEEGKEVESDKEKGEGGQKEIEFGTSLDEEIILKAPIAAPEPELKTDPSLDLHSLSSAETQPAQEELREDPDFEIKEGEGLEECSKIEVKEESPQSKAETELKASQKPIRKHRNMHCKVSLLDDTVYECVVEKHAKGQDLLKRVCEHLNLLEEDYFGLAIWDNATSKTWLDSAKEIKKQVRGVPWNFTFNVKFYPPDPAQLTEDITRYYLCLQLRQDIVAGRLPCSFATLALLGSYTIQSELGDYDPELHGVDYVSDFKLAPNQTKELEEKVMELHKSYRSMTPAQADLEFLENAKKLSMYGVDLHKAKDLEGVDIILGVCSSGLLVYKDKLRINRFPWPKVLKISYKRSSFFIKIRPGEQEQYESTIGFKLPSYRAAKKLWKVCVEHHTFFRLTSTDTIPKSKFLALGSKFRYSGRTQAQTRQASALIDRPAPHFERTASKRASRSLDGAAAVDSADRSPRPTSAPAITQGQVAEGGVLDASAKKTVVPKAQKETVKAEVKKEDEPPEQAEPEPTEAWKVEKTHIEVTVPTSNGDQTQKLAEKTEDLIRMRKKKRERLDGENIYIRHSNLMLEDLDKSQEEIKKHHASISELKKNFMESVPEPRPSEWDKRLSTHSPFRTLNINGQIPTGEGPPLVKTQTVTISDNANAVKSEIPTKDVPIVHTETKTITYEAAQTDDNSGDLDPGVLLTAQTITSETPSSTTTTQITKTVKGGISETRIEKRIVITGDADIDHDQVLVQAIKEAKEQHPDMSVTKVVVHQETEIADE
# The list shows a part of the results.
# Assays:
# Experiment in all cases: log2 fold change, soluble protein after heating vs DMSO (PISA); higher = thermal stabilisation; K562 lysate, 10 uM; active = over 0.2 and 3.5 SD of the protein, either way, in both replicates (recomputed)
# [1] = compound: CC1=C2C(=CC=C1)N=C(N(C2=O)C3=CC=CC=C3C)CN4C=NC5=C(N=CN=C54)N
# In short: (§1)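 Quantification was by TMTpro 16plex LC-MS/MS with equalised channel sums, applied to the supernatant after 21,000xg for 90 min. Samples were crude K562 extract at 1 mg/mL protein in PBS pH 7.4 with 1 mM MgCl2, treated with 10 μM compound for 30 min, heated for 3 min across 48°C-58°C, pooled and brought to 0.5% NP-40 at 4°C. Values are log-two fold changes in thermal stability relative to solvent controls, from duplicates.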
# [2] = compound: Cc1sc2c(c1C)C(c1ccc(Cl)cc1)=N[C@@H](CC(=O)OC(C)(C)C)c1nnc(C)n1-2
# In short: as §1
# [3] = compound: c1ccc([C@@H]2C[C@H]2NC2CCNCC2)cc1
# In short: as §1
# [4] = compound: C1=CC=C(C=C1)[C@H](COC2=CC3=C(C=C2)NC(=O)N3)NC(=O)C4=CC=CN(C4=O)CC5=CC(=C(C=C5)F)F
# In short: as §1
# [5] = compound: CC1=C(SC2=C1C(=N[C@H](C3=NN=C(N32)C)CC(=O)N)C4=CC=C(C=C4)Cl)C
# In short: as §1
target,measurement,setting,value
ELAVL4 (UniProt P26378),log2 fold change,[1],inactive: 0.018
same,log2 fold change,[2],inactive: -0.079
same,log2 fold change,[3],inactive: 0.095
EPG5 (UniProt Q9HCE0),log2 fold change,[4],inactive: 0.034
same,log2 fold change,[5],inactive: 0.061
same,log2 fold change,[2],inactive: -0.144
same,log2 fold change,[3],inactive: 0.006
ELP5 isoform 2 (UniProt Q8TE02),log2 fold change,[3],inactive: 0.054
EPS8L2 (UniProt Q9H6S3),log2 fold change,[4],inactive: 0.124
same,log2 fold change,[5],inactive: -0.09
same,log2 fold change,[2],inactive: 0.008
same,log2 fold change,[3],inactive: 0.037
EPN2 (UniProt I3L356),log2 fold change,[4],inactive: 0.12
same,log2 fold change,[5],inactive: -0.062
same,log2 fold change,[3],inactive: -0.235
EIF3I (UniProt Q5TFK1),log2 fold change,[3],inactive: 0.059
"EIF4G3, A0A0A0MSA7",log2 fold change,[2],inactive: -0.023
EPN1 isoform 3 (UniProt Q9Y6I3),log2 fold change,[2],inactive: -0.127
same,log2 fold change,[3],inactive: -0.028
EMC1 (UniProt H7C5A2),log2 fold change,[2],inactive: -0.128
ENTPD7 (UniProt Q9NQZ7),log2 fold change,[1],inactive: 0.041
same,log2 fold change,[3],inactive: 0.064
EPS15L1 (UniProt M0QY01),log2 fold change,[1],inactive: 0.008
same,log2 fold change,[2],inactive: -0.12
same,log2 fold change,[3],inactive: -0.049
EPB41 isoform 4 (UniProt P11171),log2 fold change,[3],inactive: 0.106

# For convenience, part of the list above.
target,measurement,setting,value
EPN2 (UniProt I3L356),log2 fold change,[4],inactive: 0.12
same,log2 fold change,[5],inactive: -0.062
